Assay results: article doi:10.1101/2023.08.20.554038
These are yes or no findings as the source states them, for the method shown. Binding seen in cells or lysates may run through a third protein. These calls come from enrichment with a bait or labelling near it, and not all partners need be listed.

By UniProt entry, the sequences of proteins in these tests, tags left out.
UniProt P12367: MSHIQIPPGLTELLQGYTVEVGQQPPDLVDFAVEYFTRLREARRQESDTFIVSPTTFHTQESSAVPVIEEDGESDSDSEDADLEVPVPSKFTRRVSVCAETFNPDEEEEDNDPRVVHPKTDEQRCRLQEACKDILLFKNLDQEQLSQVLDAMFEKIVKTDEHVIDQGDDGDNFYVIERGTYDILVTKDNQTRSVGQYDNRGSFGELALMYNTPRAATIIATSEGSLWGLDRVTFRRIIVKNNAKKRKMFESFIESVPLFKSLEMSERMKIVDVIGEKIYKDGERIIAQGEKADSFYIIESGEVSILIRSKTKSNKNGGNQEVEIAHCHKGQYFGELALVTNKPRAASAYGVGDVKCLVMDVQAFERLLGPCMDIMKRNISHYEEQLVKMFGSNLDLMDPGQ
UniProt P24588: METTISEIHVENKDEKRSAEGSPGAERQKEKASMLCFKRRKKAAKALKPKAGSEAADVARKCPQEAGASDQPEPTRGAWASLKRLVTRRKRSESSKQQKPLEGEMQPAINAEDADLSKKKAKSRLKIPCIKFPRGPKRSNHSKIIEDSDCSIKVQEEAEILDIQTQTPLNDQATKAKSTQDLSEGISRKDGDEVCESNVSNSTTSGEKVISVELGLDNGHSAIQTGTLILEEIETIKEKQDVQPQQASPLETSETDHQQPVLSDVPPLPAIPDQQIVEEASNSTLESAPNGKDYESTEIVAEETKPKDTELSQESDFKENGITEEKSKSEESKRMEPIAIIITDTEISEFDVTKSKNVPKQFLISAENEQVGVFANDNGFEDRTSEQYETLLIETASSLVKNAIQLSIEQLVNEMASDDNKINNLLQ
UniProt Q9Y490: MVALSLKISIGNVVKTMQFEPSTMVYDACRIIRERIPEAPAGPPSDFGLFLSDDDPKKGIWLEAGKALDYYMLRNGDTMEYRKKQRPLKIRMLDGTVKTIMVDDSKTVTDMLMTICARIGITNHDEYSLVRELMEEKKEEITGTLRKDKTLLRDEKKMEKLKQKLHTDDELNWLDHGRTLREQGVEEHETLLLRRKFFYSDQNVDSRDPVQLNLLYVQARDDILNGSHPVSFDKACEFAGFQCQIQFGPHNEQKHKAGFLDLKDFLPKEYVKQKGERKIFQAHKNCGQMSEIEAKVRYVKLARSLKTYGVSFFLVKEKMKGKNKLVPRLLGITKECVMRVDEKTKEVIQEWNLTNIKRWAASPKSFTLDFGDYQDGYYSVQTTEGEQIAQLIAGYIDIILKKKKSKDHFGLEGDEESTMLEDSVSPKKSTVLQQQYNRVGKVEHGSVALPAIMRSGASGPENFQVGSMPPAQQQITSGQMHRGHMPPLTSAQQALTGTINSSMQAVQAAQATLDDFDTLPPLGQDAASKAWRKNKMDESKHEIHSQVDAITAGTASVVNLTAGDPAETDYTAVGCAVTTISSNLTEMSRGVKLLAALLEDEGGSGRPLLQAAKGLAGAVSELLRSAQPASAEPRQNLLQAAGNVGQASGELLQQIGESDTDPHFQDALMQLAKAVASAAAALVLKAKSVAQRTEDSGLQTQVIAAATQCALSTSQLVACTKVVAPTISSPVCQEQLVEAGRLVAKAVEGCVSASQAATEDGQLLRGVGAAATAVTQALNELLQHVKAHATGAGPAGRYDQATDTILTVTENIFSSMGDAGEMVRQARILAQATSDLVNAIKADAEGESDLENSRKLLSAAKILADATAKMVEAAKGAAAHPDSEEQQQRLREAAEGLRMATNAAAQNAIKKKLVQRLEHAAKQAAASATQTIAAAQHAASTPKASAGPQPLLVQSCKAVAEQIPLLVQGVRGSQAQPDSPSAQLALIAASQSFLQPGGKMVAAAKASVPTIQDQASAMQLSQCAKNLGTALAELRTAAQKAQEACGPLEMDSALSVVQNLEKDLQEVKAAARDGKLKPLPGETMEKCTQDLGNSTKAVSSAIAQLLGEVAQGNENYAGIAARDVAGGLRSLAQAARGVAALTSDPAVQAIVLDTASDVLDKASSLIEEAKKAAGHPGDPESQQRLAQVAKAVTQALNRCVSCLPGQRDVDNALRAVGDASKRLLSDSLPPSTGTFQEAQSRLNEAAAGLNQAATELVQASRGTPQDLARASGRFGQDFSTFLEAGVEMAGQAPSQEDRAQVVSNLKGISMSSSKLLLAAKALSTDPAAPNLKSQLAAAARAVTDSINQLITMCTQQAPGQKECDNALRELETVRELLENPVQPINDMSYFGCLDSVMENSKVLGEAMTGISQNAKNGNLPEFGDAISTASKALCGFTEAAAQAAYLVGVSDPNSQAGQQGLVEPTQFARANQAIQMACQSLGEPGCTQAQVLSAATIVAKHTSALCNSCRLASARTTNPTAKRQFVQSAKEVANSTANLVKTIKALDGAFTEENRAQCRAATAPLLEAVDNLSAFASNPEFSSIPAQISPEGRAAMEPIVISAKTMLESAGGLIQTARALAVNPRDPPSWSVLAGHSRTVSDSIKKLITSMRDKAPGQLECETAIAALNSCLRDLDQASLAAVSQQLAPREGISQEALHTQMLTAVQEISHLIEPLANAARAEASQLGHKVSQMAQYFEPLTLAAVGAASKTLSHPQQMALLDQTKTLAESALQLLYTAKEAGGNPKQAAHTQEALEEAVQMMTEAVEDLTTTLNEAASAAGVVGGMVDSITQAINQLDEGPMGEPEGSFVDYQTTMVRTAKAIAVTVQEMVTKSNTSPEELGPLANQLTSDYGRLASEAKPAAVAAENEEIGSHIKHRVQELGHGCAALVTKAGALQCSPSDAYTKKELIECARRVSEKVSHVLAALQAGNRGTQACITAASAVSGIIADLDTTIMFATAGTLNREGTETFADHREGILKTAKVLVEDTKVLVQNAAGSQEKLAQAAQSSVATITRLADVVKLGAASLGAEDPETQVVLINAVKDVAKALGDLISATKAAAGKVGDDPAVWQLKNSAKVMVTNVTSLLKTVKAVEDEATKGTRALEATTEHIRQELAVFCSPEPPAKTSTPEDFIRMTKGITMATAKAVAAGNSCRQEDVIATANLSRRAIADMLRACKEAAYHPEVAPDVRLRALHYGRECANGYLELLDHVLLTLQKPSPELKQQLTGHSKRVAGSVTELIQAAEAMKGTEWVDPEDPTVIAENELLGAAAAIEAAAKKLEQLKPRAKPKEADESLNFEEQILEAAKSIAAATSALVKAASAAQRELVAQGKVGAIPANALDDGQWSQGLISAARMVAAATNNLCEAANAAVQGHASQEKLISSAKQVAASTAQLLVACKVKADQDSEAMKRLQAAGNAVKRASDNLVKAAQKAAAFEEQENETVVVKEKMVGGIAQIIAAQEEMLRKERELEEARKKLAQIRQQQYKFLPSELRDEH

Target: V5 epitope-tagged murine PKA RIIα fused to miniTurbo biotin ligase (V5-RIIα-mTb), wild type (mouse) (UniProt P12367)
Test: proximity labelling

Question: For AKAP79 (from UniProt P24588 1-427), which binding is on record?
Answer: The binding was “binds”.

Question: How did the binding turn out when talin1 (from UniProt Q9Y490 1-2541) was run?
Answer: Its binding is “binds”.
